## Primary screen of a compound library

Sequences of proteins named here, by UniProt entry; tags and fusion partners are left off.
UniProt E9BF75, entry or part of it: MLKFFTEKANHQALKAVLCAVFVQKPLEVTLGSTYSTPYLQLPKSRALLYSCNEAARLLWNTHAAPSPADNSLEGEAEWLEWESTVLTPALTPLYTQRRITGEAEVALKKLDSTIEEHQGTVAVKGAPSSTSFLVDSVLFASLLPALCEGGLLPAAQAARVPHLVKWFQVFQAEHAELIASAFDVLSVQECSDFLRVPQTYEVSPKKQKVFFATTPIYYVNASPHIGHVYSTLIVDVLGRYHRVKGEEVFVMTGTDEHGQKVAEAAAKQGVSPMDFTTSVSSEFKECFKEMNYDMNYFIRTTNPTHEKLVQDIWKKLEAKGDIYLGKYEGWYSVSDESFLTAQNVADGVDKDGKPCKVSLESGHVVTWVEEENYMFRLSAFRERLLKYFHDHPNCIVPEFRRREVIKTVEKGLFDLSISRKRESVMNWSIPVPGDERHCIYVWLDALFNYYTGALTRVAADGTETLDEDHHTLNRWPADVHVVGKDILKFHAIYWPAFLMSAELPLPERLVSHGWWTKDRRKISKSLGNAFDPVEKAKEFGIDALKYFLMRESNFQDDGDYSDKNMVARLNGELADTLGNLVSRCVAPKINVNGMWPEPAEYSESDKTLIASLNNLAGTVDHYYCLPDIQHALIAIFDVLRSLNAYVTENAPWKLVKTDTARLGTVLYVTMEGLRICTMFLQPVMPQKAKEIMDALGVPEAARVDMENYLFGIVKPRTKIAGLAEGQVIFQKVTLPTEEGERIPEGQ

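Methionyl-tRNA synthetase (putative), Leishmania donovani (UniProt E9BF75). Primary screen of methionyl-tRNA synthetase; the read-out is not stated. The test concentration is not given. Values are per cent inhibition. About 68,000 compounds were tested under these conditions; 0.035% (about 24) showed 50% or more at least once.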

All values are in %. The controls that fix the scale are not given in the record; negative values are as filed. Compounds were drawn at random from those tested, without regard to their results.

- COCc1cc(O)nc(C2CCCN(Cc3cccc(OC)c3)C2)n1 (stereo not shown) : 12%
- CCN(Cc1ccncc1)CC1(O)CCN(C(=O)c2ccccc2C)C1 (stereo not shown) : 7.074%
- CCN1CCCCC1C(=O)N1CCC(OC2CCCC2)CC1 (stereo not shown) : 8.639%
- CCOc1ccc(Oc2cc(CN)ccn2)cc1 : 21.05%
- O=C(c1ccc[nH]1)N1CCc2c(COCc3ccncc3)cncc2C1 : 12.78%
- CC(C(=O)NCC(F)(F)F)N1CCC(N2CCN(C)C2=O)CC1 (stereo not shown) : 13.24%
- CCc1nc(CN2CCCN(C(=O)CC(C)OC)CC2)cs1 (stereo not shown) : 7.229%
- Cc1cc(N2CCN(Cc3ccccc3)CC(O)C2)nc(N)n1 (stereo not shown) : 15.93%
- c1ccc2c(Cc3nnc([C@H]4CCN(CC5CC5)C4)o3)c[nH]c2c1 : 12.78%
- CN(C1CCCCC1)S(=O)(=O)NC1CCN(c2ncccn2)CC1 : 6.793%
- CC(C)(C)CC(=O)N1CSCC1C(=O)NCc1cccc(C#N)c1 (stereo not shown) : -1.449%
- O=C(Cc1ccc2c(c1)CCO2)N1CCN(c2ccccn2)CC1 : 24.58%
- CN(C)Cc1ccnc(C2CN(Cc3c(F)cccc3F)CCO2)n1 (stereo not shown) : 7.345%
- CC(C)(C)NS(=O)(=O)c1ccc(NC(=O)C2CC2)cc1 : 0.7371%
- O=C1CC[C@]2(CC[C@@H](NCc3ccoc3)CC2)N1 : 6.667%
- O=c1[nH]c2c(c(=O)n1C1CCCCC1)CCC2NCCc1ccccc1 (stereo not shown) : 7.054%
- Cc1ccc(N2CCC3(CCN(Cc4csc(C)n4)C3=O)C2)nn1 (stereo not shown) : 1.558%
- O=C(N1CCC2(CC1)[C@H](O)C[C@@H]2O)C1(c2ccccc2F)CC1 : 2.558%
- Cc1nn(C)c(C)c1CCC(=O)N1CCc2sccc2C1 : -4.811%
- CC(C)NC(=O)[C@H]1CCS(=O)(=O)[C@@H]2CN(c3ncc(F)cn3)C[C@H]12 : 15.75%
- CCCN1CCCN(C(=O)c2ccc(Oc3cccnc3)cc2)CC1 : 7.357%
- Cc1cnc(C(=O)N2C[C@@H]3CN(CC4CCCC4)CCO[C@@H]3C2)cn1 : 9.871%
- CNc1cc(N2CCCC2CNCc2cnc(C)cn2)ncn1 (stereo not shown) : 4.294%
- Fc1ccccc1CN1CCCN(c2ccc3cc[nH]c3n2)CC1 : 11.55%
- Cc1ccc(C(=O)N2C[C@@H]3CCN(C(C)C)C[C@@H]3C2)cn1 : 7.778%
- CCN(Cc1cccc(-c2ccncc2)c1)S(C)(=O)=O : 7.258%
- O=C(NC1CC1)[C@H]1CN(Cc2ccccc2)C[C@@H]1C(=O)c1ccccc1 : 11.63%
- CC(C)CC(=O)N1CCC2(CC1)OC(C(N)=O)Cn1ccnc12 (stereo not shown) : 13.95%
- CN(C)C(=O)CNC(=O)CCn1ncc2c(Cl)cccc21 : 12.86%
- Cc1cccnc1CN1CCC2(CC(Nc3ccncn3)C2)C1 (stereo not shown) : 16.38%
- COc1ccc(C2SCC(=O)N2c2ncc(C)s2)cc1 (stereo not shown) : 9.474%
- CC(C)(C)c1ccc(C2(C(=O)NCCS(C)(=O)=O)CC2)cc1 : 25.47%
- CCCNC(=O)CCNC(=O)c1ccccc1N1CCOCC1 : 20.57%
- CN1C(=O)C(c2ccccc2)CC12CCN(CCN1CCCC1=O)CC2 (stereo not shown) : 7.038%
- CCN1CC2(CC1=O)CN(C(=O)NC(C)C)CCN(C(=O)NC(C)C)C2 : 8.242%
- O=C(C1CCCO1)N1CCC2(CC1)COCCN(Cc1ccncc1)C2 (stereo not shown) : 13.19%
- Cc1nc(C)n(CC2CCCCN2Cc2nnc(C3CC3)o2)n1 (stereo not shown) : 10.12%
- CCc1ncc(C(=O)N2CCCC(c3nccn3CCOC)C2)cn1 (stereo not shown) : 12.9%
- Cc1oc(C)c(C(=O)NCc2cccc(C(N)=O)c2)c1C : 18.03%
- CCn1nc(C(C)C)cc1C(=O)N1CCOc2ccc(OC)cc21 : 11.65%
- O=C1NC(c2ccccc2)=N[C@@]12CC[C@@H]1CN(S(=O)(=O)C3CC3)C[C@@H]12 : 6.189%
- CN1CCOC(CNC(=O)CCc2cc(F)ccc2F)C1 (stereo not shown) : 9.966%
- CCN1CCN(C(C)CNC(=O)Nc2nc3ccccc3s2)CC1 (stereo not shown) : 19.62%

The last 3 entries again:

O=C1NC(c2ccccc2)=N[C@@]12CC[C@@H]1CN(S(=O)(=O)C3CC3)C[C@@H]12 read 6.189%.
CN1CCOC(CNC(=O)CCc2cc(F)ccc2F)C1 (stereo not shown) read 9.966%.
CCN1CCN(C(C)CNC(=O)Nc2nc3ccccc3s2)CC1 (stereo not shown) read 19.62%.

Source: ChEMBL document CHEMBL3988442, “University of Dundee, Small-Polar-MMV Screening Library” (2021).